Values of other authors, collected in patent publication US20230390267A1, “TREATMENT REGIMENS FOR EARLY IDIOPATHIC PARKINSON'S DISEASE” (BIAL - PORTELA & CA., S.A., priority 2020, published 2023).

System: PD patients with motor fluctuations
Conditions: after 3 months of opicapone; cited from earlier work

## Cc1c(Cl)c(C)[n+]([O-])c(Cl)c1-c1noc(-c2cc(O)c(O)c([N+](=O)[O-])c2)n1 [opicapone, 2,5-dichloro-3-[5-(3,4-dihydroxy-5-nitrophenyl)-1,2,4-oxadiazol-3-yl]-4,6-dimethylpyridine 1-oxide]
  patients with a decrease in levodopa dosing frequency: 12.5%
  patients with an increase in levodopa dosing frequency: 10.4%
  patients with no change in total daily levodopa dosing frequency: 77.1%
